Our source for the NP40-soluble protein abundance values is the supplement of paper PMC6411743.

Chains of the proteins cited; added tags and fusions are not shown. Lines headed by an entry give the natural chain unless they say otherwise; changes in a name come on top.
UniProt Q86US8: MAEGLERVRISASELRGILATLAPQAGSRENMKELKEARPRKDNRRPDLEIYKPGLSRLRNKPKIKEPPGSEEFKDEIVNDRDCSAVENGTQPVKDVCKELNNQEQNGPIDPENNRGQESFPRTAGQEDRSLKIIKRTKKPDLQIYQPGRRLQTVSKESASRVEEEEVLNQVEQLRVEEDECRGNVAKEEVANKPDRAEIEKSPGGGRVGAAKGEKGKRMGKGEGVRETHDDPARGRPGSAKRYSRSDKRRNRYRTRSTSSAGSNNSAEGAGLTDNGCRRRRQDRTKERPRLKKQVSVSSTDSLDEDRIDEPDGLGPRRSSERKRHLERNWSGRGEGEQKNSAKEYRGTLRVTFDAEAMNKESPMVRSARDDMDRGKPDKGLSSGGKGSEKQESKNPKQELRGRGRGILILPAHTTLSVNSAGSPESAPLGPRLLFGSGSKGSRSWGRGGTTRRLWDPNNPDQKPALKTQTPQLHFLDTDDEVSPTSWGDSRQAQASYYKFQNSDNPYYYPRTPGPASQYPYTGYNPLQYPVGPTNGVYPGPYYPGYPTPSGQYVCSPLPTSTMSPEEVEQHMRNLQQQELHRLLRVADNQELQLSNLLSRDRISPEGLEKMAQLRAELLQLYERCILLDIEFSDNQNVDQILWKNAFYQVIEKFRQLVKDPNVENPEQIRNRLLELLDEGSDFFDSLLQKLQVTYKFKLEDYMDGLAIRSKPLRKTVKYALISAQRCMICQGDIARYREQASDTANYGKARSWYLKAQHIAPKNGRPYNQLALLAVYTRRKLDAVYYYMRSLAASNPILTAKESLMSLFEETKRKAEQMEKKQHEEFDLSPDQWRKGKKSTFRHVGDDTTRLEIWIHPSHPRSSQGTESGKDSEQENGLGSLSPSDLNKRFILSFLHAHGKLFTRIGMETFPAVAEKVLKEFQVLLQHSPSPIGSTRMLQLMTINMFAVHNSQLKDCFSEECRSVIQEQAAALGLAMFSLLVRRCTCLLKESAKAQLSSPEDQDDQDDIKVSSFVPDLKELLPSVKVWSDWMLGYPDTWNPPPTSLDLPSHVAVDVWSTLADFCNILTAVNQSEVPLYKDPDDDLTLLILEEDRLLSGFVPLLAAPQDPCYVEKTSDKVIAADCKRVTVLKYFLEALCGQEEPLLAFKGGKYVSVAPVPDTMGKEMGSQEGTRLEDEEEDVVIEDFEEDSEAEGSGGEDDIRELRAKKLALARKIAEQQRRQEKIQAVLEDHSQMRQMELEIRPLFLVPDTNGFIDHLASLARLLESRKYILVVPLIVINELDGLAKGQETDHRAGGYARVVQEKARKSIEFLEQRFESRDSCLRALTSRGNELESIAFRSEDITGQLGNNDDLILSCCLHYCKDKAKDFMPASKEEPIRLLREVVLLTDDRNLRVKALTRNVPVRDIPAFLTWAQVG
UniProt Q75QN2, whole entry: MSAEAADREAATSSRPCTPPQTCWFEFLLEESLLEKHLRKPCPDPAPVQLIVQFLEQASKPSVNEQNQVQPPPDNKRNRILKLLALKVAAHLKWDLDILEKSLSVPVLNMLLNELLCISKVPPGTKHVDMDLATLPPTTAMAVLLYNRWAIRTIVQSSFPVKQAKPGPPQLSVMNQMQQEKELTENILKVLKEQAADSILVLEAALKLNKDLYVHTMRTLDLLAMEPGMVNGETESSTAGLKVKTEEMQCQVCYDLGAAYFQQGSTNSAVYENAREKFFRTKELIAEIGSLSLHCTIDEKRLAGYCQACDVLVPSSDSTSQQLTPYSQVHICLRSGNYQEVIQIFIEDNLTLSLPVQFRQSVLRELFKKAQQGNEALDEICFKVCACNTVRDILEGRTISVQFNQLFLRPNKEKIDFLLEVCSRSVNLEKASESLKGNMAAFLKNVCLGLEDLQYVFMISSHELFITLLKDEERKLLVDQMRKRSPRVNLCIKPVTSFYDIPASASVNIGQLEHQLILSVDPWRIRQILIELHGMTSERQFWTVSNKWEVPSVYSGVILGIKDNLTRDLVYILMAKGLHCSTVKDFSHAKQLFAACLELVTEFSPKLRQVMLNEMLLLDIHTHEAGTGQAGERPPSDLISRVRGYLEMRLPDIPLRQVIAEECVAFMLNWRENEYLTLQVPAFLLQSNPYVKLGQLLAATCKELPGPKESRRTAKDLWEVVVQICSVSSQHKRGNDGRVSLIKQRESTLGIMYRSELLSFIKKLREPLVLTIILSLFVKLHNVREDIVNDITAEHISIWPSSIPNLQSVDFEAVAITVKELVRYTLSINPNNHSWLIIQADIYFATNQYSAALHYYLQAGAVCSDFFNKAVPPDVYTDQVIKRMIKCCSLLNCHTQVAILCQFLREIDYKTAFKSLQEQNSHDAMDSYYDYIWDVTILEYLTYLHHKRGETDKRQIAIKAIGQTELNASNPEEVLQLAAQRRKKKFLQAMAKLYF
UniProt Q86WV1: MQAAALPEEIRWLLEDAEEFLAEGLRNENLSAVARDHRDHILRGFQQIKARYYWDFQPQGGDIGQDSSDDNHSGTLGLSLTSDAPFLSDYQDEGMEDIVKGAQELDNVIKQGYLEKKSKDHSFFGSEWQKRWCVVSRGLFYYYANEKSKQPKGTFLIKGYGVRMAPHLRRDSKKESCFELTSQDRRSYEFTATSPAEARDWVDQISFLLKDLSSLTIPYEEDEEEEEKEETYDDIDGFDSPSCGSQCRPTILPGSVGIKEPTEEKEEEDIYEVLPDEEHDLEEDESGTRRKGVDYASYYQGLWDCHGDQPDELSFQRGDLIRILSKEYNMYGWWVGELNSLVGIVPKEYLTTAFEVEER
UniProt Q6PI47: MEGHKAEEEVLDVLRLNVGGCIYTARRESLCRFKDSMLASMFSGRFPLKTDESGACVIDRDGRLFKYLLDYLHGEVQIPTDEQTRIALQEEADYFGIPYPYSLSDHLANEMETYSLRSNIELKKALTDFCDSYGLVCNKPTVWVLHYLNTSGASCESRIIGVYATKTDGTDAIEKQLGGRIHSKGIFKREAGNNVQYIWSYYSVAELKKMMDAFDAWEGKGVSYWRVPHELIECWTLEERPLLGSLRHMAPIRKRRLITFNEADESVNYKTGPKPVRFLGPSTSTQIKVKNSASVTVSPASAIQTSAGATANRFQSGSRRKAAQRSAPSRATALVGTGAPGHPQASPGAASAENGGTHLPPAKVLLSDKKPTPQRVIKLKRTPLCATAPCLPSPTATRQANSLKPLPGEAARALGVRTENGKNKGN
UniProt Q86VP1, whole entry: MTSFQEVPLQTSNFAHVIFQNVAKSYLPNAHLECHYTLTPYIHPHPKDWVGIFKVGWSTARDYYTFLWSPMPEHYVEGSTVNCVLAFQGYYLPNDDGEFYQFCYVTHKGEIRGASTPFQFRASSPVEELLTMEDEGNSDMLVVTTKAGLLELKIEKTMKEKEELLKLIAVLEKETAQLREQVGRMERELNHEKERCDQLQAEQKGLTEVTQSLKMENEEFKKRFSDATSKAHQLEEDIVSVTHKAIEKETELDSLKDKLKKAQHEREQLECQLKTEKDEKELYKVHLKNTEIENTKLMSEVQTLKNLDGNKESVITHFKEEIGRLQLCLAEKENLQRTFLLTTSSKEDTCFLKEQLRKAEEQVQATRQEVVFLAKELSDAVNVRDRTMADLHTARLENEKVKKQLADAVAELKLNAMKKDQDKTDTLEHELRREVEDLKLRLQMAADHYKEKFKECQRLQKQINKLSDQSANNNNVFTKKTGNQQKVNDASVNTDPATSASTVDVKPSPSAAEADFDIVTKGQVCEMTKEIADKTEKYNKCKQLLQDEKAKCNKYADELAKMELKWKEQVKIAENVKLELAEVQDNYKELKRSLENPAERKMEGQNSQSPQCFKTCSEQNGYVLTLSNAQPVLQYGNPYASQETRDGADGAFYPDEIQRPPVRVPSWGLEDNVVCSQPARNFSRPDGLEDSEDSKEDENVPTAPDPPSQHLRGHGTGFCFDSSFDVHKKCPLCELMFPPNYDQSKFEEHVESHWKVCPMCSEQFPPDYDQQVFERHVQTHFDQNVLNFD
UniProt Q7Z7A4: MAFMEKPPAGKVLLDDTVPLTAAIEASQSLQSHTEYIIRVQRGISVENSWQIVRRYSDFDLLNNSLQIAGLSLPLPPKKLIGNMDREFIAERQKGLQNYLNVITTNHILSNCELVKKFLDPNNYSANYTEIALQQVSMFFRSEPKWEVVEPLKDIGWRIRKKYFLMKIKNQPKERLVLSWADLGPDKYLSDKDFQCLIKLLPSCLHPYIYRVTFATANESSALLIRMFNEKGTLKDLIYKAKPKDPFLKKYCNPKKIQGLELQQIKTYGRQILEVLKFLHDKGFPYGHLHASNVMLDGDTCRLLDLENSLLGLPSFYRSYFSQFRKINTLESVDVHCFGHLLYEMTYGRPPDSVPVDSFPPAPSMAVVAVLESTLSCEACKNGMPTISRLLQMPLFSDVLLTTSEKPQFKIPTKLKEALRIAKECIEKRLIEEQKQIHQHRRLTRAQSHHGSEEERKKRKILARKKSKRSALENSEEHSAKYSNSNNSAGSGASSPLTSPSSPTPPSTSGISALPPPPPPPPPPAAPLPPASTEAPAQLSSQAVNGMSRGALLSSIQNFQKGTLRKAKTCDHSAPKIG
UniProt Q7L8W6: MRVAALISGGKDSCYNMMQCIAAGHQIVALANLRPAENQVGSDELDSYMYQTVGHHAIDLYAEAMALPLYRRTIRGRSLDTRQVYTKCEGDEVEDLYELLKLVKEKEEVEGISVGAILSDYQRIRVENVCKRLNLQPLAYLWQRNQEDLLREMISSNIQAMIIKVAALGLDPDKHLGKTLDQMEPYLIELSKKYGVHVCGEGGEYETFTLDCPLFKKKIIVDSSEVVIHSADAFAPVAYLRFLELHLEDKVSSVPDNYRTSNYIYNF
UniProt Q86U86, whole entry: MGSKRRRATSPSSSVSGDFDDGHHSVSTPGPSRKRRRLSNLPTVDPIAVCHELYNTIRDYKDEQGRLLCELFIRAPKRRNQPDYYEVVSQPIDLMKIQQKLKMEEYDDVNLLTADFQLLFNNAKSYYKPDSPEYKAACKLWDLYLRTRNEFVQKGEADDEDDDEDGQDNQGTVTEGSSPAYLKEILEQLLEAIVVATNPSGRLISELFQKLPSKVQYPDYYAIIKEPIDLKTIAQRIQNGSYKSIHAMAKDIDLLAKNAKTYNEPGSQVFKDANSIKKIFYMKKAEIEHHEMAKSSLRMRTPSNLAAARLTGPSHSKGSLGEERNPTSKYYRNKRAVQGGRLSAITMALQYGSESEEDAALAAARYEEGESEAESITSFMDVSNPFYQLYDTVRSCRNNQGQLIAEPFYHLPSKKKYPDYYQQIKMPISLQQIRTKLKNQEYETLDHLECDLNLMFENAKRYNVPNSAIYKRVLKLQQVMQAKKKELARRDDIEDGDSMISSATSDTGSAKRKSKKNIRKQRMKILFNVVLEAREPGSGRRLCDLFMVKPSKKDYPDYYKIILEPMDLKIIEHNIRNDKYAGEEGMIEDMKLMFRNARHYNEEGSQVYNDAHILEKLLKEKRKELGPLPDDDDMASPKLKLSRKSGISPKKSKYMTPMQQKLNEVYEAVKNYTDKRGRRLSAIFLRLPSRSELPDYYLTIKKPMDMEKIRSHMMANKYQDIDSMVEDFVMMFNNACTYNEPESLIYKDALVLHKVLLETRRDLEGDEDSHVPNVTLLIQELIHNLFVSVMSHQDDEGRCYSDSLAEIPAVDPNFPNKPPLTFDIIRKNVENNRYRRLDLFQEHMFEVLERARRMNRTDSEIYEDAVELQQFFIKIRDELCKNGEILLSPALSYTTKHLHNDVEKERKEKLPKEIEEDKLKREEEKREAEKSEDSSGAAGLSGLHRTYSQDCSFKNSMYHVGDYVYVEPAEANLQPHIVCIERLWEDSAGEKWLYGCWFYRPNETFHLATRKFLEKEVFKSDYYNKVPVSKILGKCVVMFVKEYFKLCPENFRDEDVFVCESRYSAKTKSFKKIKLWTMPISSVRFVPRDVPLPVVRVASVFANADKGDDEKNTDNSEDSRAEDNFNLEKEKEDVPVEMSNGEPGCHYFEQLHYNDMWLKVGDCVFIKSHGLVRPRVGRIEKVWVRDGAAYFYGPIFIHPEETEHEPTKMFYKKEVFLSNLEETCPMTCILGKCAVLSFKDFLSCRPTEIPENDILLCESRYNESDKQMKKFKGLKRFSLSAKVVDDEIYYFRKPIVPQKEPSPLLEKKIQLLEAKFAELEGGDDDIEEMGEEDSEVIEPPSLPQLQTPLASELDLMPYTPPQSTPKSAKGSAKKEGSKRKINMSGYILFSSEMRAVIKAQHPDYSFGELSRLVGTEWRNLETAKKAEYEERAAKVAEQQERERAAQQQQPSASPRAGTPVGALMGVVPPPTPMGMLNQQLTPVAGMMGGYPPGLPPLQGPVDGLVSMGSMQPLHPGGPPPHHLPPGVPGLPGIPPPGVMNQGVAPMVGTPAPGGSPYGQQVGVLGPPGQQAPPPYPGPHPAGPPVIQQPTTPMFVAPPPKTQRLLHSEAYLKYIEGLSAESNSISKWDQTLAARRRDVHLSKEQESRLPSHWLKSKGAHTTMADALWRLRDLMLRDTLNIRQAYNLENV

± gives the standard deviation of the averaged measurements. The list shows a part of the results, in another mix than the full data. Most values lie at the level of the controls, where differences are scatter.

Compound in the test: Nc1ncnc2c1ncn2[C@@H]1O[C@H](COP(=O)(O)OP(=O)(O)OP(=O)(O)O)[C@@H](O)[C@H]1O [adenosine triphosphate]
In words: NP40-soluble protein abundance relative to vehicle (solubility fold change) (ratio); higher = more soluble protein in presence of ATP. The method, boiled down:
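Each value is a fold change relative to the detergent-processed vehicle, calculated per replicate from vsn-normalised intensities. Jurkat crude lysate received eight concentrations (0.1 to 10 mM) for 10 min at room temperature and 3 min at 37 °C, then was solubilised in 0.8% NP40 with benzonase (60 min, 4 °C). The ultracentrifuged supernatant was TMT-labelled and run by LC-MS/MS in three independent experiments.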

Turning to UniProt Q71RG4 and related entries, the NP40-soluble protein abundance (concentration: 0.1mM) amounted to 0.987 ± 0.071 and the NP40-soluble protein abundance (concentration: 0.5mM) was 0.938 ± 0.11.
Consider UniProt Q8IUF8, for which the NP40-soluble protein abundance (concentration: 0.1mM) worked out at 1.13 ± 0.086 and the NP40-soluble protein abundance (concentration: 0.5mM) turned out to be 1.15 ± 0.052.
For UniProt Q7L0Y3, in that order: 0.982 ± 0.023 and 0.99 ± 0.011.
For the target GLCCI1 (UniProt Q86VQ1), the NP40-soluble protein abundance was found to be 0.976 ± 0.076 (concentration: 0.1mM) and 0.953 ± 0.11 (concentration: 0.5mM).
As to UniProt Q6UXH1 and related entries, the NP40-soluble protein abundance amounted to 0.998 ± 0.033 (concentration: 0.1mM) and 0.948 ± 0.08 (concentration: 0.5mM).
The matching figures for NUFIP2 (UniProt Q7Z417): 1.02 ± 0.13 and 1.06 ± 0.082.
With UniProt Q7L099-2|Q7L099-3|Q7L099-4, the NP40-soluble protein abundance reads like this: (concentration: 0.1mM) 0.99 ± 0.035; (concentration: 0.5mM) 1 ± 0.061.
Take GPRIN1 (UniProt Q7Z2K8): the NP40-soluble protein abundance was found to be 1 ± 0.072 (concentration: 0.1mM) and 0.963 ± 0.028 (concentration: 0.5mM).
For SMG6 (UniProt Q86US8), in that order: 1.03 ± 0.019 and 1.23 ± 0.038.
For UniProt Q8IUQ4 and related entries, in that order: 0.964 ± 0.028 and 0.932 ± 0.072.
The matching figures for HOMER1 (UniProt Q86YM7): 0.951 ± 0.048 and 0.9359 ± 0.0062.
Regarding UniProt Q8IUX7, the NP40-soluble protein abundance (concentration: 0.1mM) stood at 0.983 ± 0.056 and the NP40-soluble protein abundance (concentration: 0.5mM) turned out to be 0.84 ± 0.31.
ENOSF1 (UniProt Q7L5Y1): the NP40-soluble protein abundance (concentration: 0.1mM) was 1.06 ± 0.061 and the NP40-soluble protein abundance (concentration: 0.5mM) is 1.04 ± 0.06.
Take UniProt Q86SK9 and related entries: the NP40-soluble protein abundance worked out at 0.901 ± 0.057 (concentration: 0.1mM) and 0.926 ± 0.028 (concentration: 0.5mM).
For the target UniProt Q75QN2 and related entries, the NP40-soluble protein abundance amounted to 1.05 ± 0.023 (concentration: 0.1mM) and 1.044 ± 0.0037 (concentration: 0.5mM).
As to UniProt Q86WV1 and related entries, the NP40-soluble protein abundance amounted to 0.99 ± 0.015 (concentration: 0.1mM) and 0.992 ± 0.038 (concentration: 0.5mM).
UniProt Q6Y288: the NP40-soluble protein abundance is, setting by setting: (concentration: 0.1mM) 0.983 ± 0.026; (concentration: 0.5mM) 0.99 ± 0.068.
As to UniProt Q6ZMG9 and related entries, the NP40-soluble protein abundance came out at 0.934 ± 0.085 (concentration: 0.1mM) and 0.942 ± 0.17 (concentration: 0.5mM).
For the target UniProt Q86YB8, the NP40-soluble protein abundance (concentration: 0.1mM) was 0.934 ± 0.064 and the NP40-soluble protein abundance (concentration: 0.5mM) turned out to be 0.963 ± 0.059.
UniProt Q6ZRS2 and related entries: the NP40-soluble protein abundance (concentration: 0.1mM) amounted to 1.06 ± 0.053 and the NP40-soluble protein abundance (concentration: 0.5mM) stood at 1.18 ± 0.15.
In the case of UniProt Q6UWP7 and related entries, the NP40-soluble protein abundance turned out to be 1.04 ± 0.053 (concentration: 0.1mM) and 1.03 ± 0.074 (concentration: 0.5mM).
Turning to UniProt Q6PI47, the NP40-soluble protein abundance (concentration: 0.1mM) was 0.935 ± 0.041 and the NP40-soluble protein abundance (concentration: 0.5mM) worked out at 0.76 ± 0.15.
Consider WDR59 (UniProt Q6PJI9), for which the NP40-soluble protein abundance by setting is: (concentration: 0.1mM) 1.01 ± 0.057; (concentration: 0.5mM) 1.06 ± 0.079.
RASAL3 (UniProt Q86YV0): the NP40-soluble protein abundance worked out at 0.996 ± 0.011 (concentration: 0.1mM) and 1.04 ± 0.035 (concentration: 0.5mM).
The matching figures for TMED4 (UniProt Q7Z7H5): 0.996 ± 0.051 and 1.01 ± 0.04.
Regarding UniProt Q86VP1-2|B8ZZD4, the NP40-soluble protein abundance by setting is: (concentration: 0.1mM) 0.998 ± 0.044; (concentration: 0.5mM) 1.01 ± 0.032.
Regarding UniProt Q6ULP2 and related entries, the NP40-soluble protein abundance (concentration: 0.1mM) came out at 0.997 ± 0.035 and the NP40-soluble protein abundance (concentration: 0.5mM) was determined as 0.991 ± 0.023.
In the case of ERI1 (UniProt Q8IV48), the NP40-soluble protein abundance was 1.03 ± 0.051 (concentration: 0.1mM) and 1.09 ± 0.07 (concentration: 0.5mM).
IRF2BP1 (UniProt Q8IU81): the NP40-soluble protein abundance (concentration: 0.1mM) was determined as 0.992 ± 0.024 and the NP40-soluble protein abundance (concentration: 0.5mM) was 0.981 ± 0.04.
As to UniProt Q7Z7A4 and related entries, the NP40-soluble protein abundance came to 0.993 ± 0.093 (concentration: 0.1mM) and 0.972 ± 0.035 (concentration: 0.5mM).
Take UniProt Q6PJG2 and related entries: the NP40-soluble protein abundance by setting is: (concentration: 0.1mM) 1.02 ± 0.031; (concentration: 0.5mM) 1.09 ± 0.053.
UniProt Q6PII5-2|B4DED4: the NP40-soluble protein abundance was found to be 1.12 ± 0.1 (concentration: 0.1mM) and 0.958 ± 0.062 (concentration: 0.5mM).
As to UniProt Q6ZNJ1 and related entries, the NP40-soluble protein abundance (concentration: 0.1mM) was determined as 1.04 ± 0.06 and the NP40-soluble protein abundance (concentration: 0.5mM) turned out to be 1.04 ± 0.035.
For UniProt Q6UXN9, in that order: 1.05 ± 0.081 and 1.05 ± 0.024.
For MFSD6 (UniProt Q6ZSS7), the NP40-soluble protein abundance runs as follows: (concentration: 0.1mM) 0.957 ± 0.033; (concentration: 0.5mM) 0.928 ± 0.045.
Turning to UniProt Q6ZS86 and related entries, the NP40-soluble protein abundance stood at 1.03 ± 0.083 (concentration: 0.1mM) and 1.07 ± 0.091 (concentration: 0.5mM).
As for UniProt Q7L8W6, the NP40-soluble protein abundance amounted to 1.06 ± 0.093 (concentration: 0.1mM) and 1.09 ± 0.09 (concentration: 0.5mM).
For PAXIP1 (UniProt Q6ZW49), in that order: 0.962 ± 0.071 and 0.99 ± 0.077.
On to CYB5R4 (UniProt Q7L1T6), for which the NP40-soluble protein abundance runs as follows: (concentration: 0.1mM) 1.05 ± 0.064; (concentration: 0.5mM) 1.07 ± 0.12.
On to UniProt Q86U86 and related entries, for which the NP40-soluble protein abundance is 1.06 ± 0.03 (concentration: 0.1mM) and 1.22 ± 0.046 (concentration: 0.5mM).
As to UniProt Q7Z333 and related entries, the NP40-soluble protein abundance (concentration: 0.1mM) is 0.966 ± 0.058 and the NP40-soluble protein abundance (concentration: 0.5mM) is 1.025 ± 0.0044.
The matching figures for ADAT2 (UniProt Q7Z6V5): 0.899 ± 0.078 and 0.88 ± 0.12.
